From PubChem BioAssay AID2685 (National Center for Advancing Translational Sciences (NCATS), 2010)
Some of the results follow. The main result of the screen is listed elsewhere. These columns were measured beside it and carry no call. Most of these compounds were active or inconclusive in the main read-out, so they are no random draw. Potencies come from curve fits of mixed quality, noted in brackets.

Test: qHTS Assay for Lipid Storage Modulators in Drosophila S3 Cells;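 on cell number change: cells counted by Cell Tracker Red CMTPX staining in the red channel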
Conditions: BODIPY lipid droplet fluorescence, 18-24 h; for cell number change: measured here: cell count max response, cells fed with added oleic acid
Procedure, shortened: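 Drosophila S3 cells loaded with oleic acid (400 uM, as added) and compounds at several concentrations; lipid droplets imaged by 488-nm laser-scanning cytometry, 500–530 nm intensity and object ratio to cell channel. Percent activity normalized to 20 uM Triacsin C.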

[1] = measured here: lipid fluorescence (Fed channel) AC50, cells fed with added oleic acid
[2] = measured here: cell number channel AC50, cells fed with added oleic acid

SMILES | cell number change | AC50 [1] | AC50 [2]
Cc1onc(-c2ccccc2)c1C(=O)NNC(=O)c1ccccc1 | 13.7% | 2.59 µM [rising, partial curve] | –
Cc1ccc2c(C)c(C(=O)N(C)C(C)c3ccon3)oc2c1C (stereo not given) | – | 14.6 µM [rising, partial curve] | –
CN(C)/C=N/S(=O)(=O)c1cccn1-c1ncc(C(F)(F)F)cc1Cl | – | 2.06 µM [falling, partial curve] | 0.00461 µM [falling, full curve, poor fit]
COc1ccc(CNC(=O)CSc2ncnc3ccccc23)cc1OC | -3.79% | – | 0.0517 µM [falling, full curve, poor fit]
O=C(CCCN1C(=O)c2cccnc2C1=O)N1CC(=O)N(CCc2ccccc2)C(=O)C1 | -12.1% | 11.6 µM [falling, partial curve, poor fit] | –
Cc1ccc(C(=O)NNC(=O)CSc2nnc(CNc3ccc(F)cc3)n2C)cc1 | 23.2% | – | –
Cc1csc(Nc2nc(N)c(C(=O)Nc3cc(Cl)ccc3F)o2)n1 | 1.41% | 0.13 µM [rising, full curve, poor fit] | –
CC(=O)Nc1ccc(Oc2ncccn2)c(Cl)c1 | -19.1% | – | –
S=C(c1ccc(OCc2ccccc2)cc1)N1CCCC1 | -46.8% | – | 20.6 µM [falling, single point]
Cc1noc(C)c1COC(=O)c1ccc(S(=O)(=O)N2CCCCC2)cc1 | – | 6.51 µM [rising, single point] | 2.91 µM [rising, single point]
COc1ccc(C(CCN2CCCC(C)C2)c2c(OC)cc(OC)c3c(-c4ccccc4)cc(=O)oc23)cc1 (stereo not given) | -61% | 29.1 µM [falling, single point] | 25.9 µM [falling, single point]
O=C(CSc1nnc(CNc2ccc(F)cc2)n1Cc1ccccc1)N1CCOCC1 | -2.03% | 0.731 µM [falling, full curve] | 0.731 µM [falling, full curve]
O=C(C1CCN(Cc2nc(Cc3cccc(F)c3)no2)CC1)N1CCOCC1 | -0.125% | 6.51 µM [falling, single point] | –
CC(=O)Oc1cccc(N2C(=O)c3cccc4c([N+](=O)[O-])ccc(c34)C2=O)c1 | -32.7% | 6.51 µM [falling, full curve] | 14.6 µM [falling, partial curve, poor fit]
O=C(NCCS(=O)(=O)NCc1ccco1)c1ccccc1 | -29.3% | 3.26 µM [falling, partial curve, poor fit] | 6.51 µM [falling, single point]
O=C1Nc2ccc(Cl)cc2/C1=C/C1CC=CCC1 (stereo not given) | -58.9% | 20.6 µM [falling, single point] | 20.6 µM [falling, single point]
CCN1CCN(c2nc3sc4c(c3c3ncnn23)CC(C)CC4)CC1 (stereo not given) | -0.845% | 0.58 µM [falling, full curve, poor fit] | –
CCN(CC)CCCn1c2c(c(SCC(=O)Nc3cccc(C)c3C)nc1=O)CCC2 | 6.5% | – | –

SMILES | cell number change | AC50 [1] | AC50 [2]
COc1ccc(CCNC(=O)C(=O)Nc2ccc3nc4n(c(=O)c3c2)CCCCC4)cc1OC | -28.4% | 23.1 µM [falling, single point] | –
O=C(Nc1ccccc1Cl)c1ccc2c(c1)N(Cc1ccc(F)cc1)C(=O)CS2=O (stereo not given) | – | 6.51 µM [rising, single point] | –
Cc1csc2nc(O)c(C(=O)NCC3CCCO3)c(=O)n12 (stereo not given) | -76.7% | – | 23.1 µM [falling, single point]
COc1cc(/C=N/NC(=S)Nc2cccnc2)cc(OC)c1OC | – | 0.58 µM [rising, single point] | –
NS(=O)(=O)c1cc(C(=O)NCC2CCCCC2)ccc1Cl | 15.7% | 29.1 µM [rising, single point] | –
COc1ccc(C2C(C(=O)OCC(=O)NC(C)(C)C)CCC(=O)N2c2ccc(C)cc2)cc1OC (stereo not given) | 59.8% | – | –
C/C(=N\NC(=O)c1c(Cl)c(C)nn1C)c1cccc(NC(=O)c2cccc(F)c2)c1 | -44.8% | 7.94 µM [falling, partial curve] | 20 µM [falling, single point]
CC1CN(Cc2ccccc2)c2nc3c(c(=O)n(CC(N)=O)c(=O)n3C)n2C1 (stereo not given) | – | 6.51 µM [rising, single point] | –
CCc1cccc(NC(=O)Cn2c(=O)oc3cc(S(=O)(=O)N4CCOCC4)ccc32)c1 | – | 29.1 µM [falling, single point] | –
COc1ccc(CCN(C)c2ccc(C(N)=O)cc2[N+](=O)[O-])cc1OC | 48.8% | – | 1.84 µM [rising, full curve, poor fit]
CCn1cc(/C=N/NC(=O)c2ccc(C#N)cc2F)c2ccccc21 | 38.4% | 0.291 µM [rising, partial curve, poor fit] | 14.6 µM [rising, single point]
CCC(CC)C(=O)Nc1ccc(C(=O)c2ccccc2)cc1 | 38.7% | 3.26 µM [rising, full curve] | 3.66 µM [rising, full curve]
Cc1ccc(S(=O)(=O)Nc2ccc3c(c2)CCC3)cc1C | -46.1% | 29.1 µM [falling, single point] | 29.1 µM [falling, single point]
COc1ccc(-c2cc(-c3ccccc3)nc(Cl)n2)cc1OC | -5.19% | 29.1 µM [falling, single point] | –
O=C(Nc1ccc(N2CCN(C(=O)c3ccc(Cl)cc3)CC2)cc1)c1ccc2c(c1)OCCO2 | -14% | 5.8 µM [rising, partial curve] | –
O=C(CSc1nnnn1C1CCCC1)c1ccc2c(c1)OCCO2 | – | 0.517 µM [falling, single point] | –
COc1ccc(/C=N/NC(=O)c2ccccc2O)cc1COc1ccccn1 | -6.34% | 5.17 µM [falling, partial curve] | –
COc1ccc(C2Nc3cccc4cccc(c34)N2)cc1Br | – | 6.51 µM [falling, single point] | –

Nine successive compounds from above:
SMILES | cell number change | AC50 [1] | AC50 [2]
COc1ccc(CCN(C)c2ccc(C(N)=O)cc2[N+](=O)[O-])cc1OC | 48.8% | – | 1.84 µM [rising, full curve, poor fit]
CCn1cc(/C=N/NC(=O)c2ccc(C#N)cc2F)c2ccccc21 | 38.4% | 0.291 µM [rising, partial curve, poor fit] | 14.6 µM [rising, single point]
CCC(CC)C(=O)Nc1ccc(C(=O)c2ccccc2)cc1 | 38.7% | 3.26 µM [rising, full curve] | 3.66 µM [rising, full curve]
Cc1ccc(S(=O)(=O)Nc2ccc3c(c2)CCC3)cc1C | -46.1% | 29.1 µM [falling, single point] | 29.1 µM [falling, single point]
COc1ccc(-c2cc(-c3ccccc3)nc(Cl)n2)cc1OC | -5.19% | 29.1 µM [falling, single point] | –
O=C(Nc1ccc(N2CCN(C(=O)c3ccc(Cl)cc3)CC2)cc1)c1ccc2c(c1)OCCO2 | -14% | 5.8 µM [rising, partial curve] | –
O=C(CSc1nnnn1C1CCCC1)c1ccc2c(c1)OCCO2 | – | 0.517 µM [falling, single point] | –
COc1ccc(/C=N/NC(=O)c2ccccc2O)cc1COc1ccccn1 | -6.34% | 5.17 µM [falling, partial curve] | –
COc1ccc(C2Nc3cccc4cccc(c34)N2)cc1Br | – | 6.51 µM [falling, single point] | –
